Reference: doi:10.1101/2025.07.08.663620
Results are given in words; binding and its absence hold for the method and conditions named. Binding seen in cells or lysates may run through a third protein. Some results given as binding are weak or reduced against the parent protein; the word gives no strength.

Amino acid sequences for entries named in this document (tags omitted).
UniProt Q14980: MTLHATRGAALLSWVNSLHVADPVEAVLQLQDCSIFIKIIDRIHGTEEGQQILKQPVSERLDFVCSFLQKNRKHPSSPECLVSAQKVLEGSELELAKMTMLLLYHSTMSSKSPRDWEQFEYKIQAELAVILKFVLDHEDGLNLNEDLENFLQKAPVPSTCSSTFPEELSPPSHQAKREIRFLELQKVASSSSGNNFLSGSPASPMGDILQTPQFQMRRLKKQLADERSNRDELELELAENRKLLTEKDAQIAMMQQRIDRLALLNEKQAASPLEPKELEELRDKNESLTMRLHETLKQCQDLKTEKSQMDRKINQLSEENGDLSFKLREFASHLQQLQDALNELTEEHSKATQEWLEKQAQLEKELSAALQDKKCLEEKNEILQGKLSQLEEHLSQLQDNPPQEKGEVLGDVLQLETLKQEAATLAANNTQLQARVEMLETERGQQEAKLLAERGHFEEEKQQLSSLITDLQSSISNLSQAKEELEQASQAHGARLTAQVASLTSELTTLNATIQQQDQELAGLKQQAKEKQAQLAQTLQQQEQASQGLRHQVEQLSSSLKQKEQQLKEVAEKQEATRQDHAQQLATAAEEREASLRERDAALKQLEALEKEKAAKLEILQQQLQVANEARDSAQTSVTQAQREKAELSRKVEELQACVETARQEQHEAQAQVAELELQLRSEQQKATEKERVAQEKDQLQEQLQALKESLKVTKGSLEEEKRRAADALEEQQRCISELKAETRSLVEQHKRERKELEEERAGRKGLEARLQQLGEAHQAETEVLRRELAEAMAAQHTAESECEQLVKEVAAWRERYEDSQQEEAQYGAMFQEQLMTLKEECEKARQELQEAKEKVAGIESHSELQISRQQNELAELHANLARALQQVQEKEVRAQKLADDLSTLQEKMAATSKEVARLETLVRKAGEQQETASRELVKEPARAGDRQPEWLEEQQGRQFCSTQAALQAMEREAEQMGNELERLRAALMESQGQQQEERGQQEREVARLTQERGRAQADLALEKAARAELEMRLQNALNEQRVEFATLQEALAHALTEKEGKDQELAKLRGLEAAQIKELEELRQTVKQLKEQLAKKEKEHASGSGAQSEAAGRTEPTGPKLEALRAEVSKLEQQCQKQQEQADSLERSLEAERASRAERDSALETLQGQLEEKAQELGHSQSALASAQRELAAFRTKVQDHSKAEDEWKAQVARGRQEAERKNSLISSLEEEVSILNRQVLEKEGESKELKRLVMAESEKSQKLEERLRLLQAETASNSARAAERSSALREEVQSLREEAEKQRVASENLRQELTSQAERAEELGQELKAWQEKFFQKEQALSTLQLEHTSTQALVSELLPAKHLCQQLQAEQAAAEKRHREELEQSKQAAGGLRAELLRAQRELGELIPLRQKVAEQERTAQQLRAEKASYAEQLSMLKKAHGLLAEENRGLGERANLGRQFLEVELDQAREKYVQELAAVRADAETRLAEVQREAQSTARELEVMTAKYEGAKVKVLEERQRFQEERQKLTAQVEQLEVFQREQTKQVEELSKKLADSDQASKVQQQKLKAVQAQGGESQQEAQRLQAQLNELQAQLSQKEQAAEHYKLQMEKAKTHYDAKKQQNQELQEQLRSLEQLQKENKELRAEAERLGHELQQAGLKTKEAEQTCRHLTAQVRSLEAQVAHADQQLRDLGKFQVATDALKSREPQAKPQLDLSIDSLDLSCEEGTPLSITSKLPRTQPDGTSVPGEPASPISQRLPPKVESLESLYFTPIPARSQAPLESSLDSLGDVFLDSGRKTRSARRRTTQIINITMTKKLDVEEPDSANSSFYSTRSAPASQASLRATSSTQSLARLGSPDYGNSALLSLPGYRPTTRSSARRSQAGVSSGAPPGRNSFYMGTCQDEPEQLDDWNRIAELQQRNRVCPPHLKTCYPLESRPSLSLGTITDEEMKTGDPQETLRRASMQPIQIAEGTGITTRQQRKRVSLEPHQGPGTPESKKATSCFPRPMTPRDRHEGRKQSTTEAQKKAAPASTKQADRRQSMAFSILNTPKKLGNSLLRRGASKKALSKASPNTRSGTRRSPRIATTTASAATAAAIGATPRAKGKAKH
UniProt Q02539: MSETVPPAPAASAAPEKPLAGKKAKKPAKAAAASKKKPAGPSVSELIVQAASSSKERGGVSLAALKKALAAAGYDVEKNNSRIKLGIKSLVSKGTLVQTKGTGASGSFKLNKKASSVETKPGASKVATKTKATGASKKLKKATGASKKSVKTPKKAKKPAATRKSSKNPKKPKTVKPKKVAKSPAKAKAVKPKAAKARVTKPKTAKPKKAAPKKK

Target: HA-tagged NuMA over-expressed in 293T cells (human) (UniProt Q14980)
Test: co-IP

In the case of “FLAG-tagged H1.1 over-expressed in 293T cells (from UniProt Q02539 1-215)”, the binding is reported as “binds”.
